Data as given in PubChem BioAssay AID1259329 (Drosophila RNAi Screening Center, 2017).

- Screen: 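Vehicle-only control for knock-down screens on manganese or zinc toxicity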
- Cell system: Drosophila S2R+ cells
- Reagent: long dsRNA against Drosophila genes
- Timing: 5 days (4 days knock-down, then 1 day after water)
- Conditions: water added as vehicle control, no metal, one day before read-out
- Measurement: 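Luciferase-based total ATP per well, read one day after adding water without metal following 4 days knock-down, given as z-score averaged across duplicate plates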
- Direction: mean ATP z-score: higher = more total ATP, likely more viable cells
- Hit rule: 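Active means the absolute value of the z-score is over 1.5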
The deposit covers 418 reagents; this is a part drawn at random. 20 of them (4.8%) were called active. 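All active calls have high ATP; no reagent fell below -1.5.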 Not stated in the record: the amount of reagent, the dose of the treatment.

After knock-down of CG1827 [DRSC06719], the screen gave mean ATP z-score -0.441; inactive.
hay [DRSC11354] showed mean ATP z-score 2.36; active.
Depletion of hay [DRSC35779] came out at: mean ATP z-score 4.02; active.
Silencing of hay [DRSC37557] came out at: mean ATP z-score 0.576; inactive.
Silencing of CG12268 [DRSC14491] came out at: mean ATP z-score 0.2; inactive.
Depletion of CG12268 [DRSC28755] resulted in: mean ATP z-score -0.0879; inactive.
For Npc1b [DRSC20488], the values are mean ATP z-score -0.409; inactive.
Npc1b [DRSC36136] scored mean ATP z-score -0.711; inactive.
For Npc1b [DRSC39575], the values are mean ATP z-score 1.12; inactive.
Naglu [DRSC02267] scored mean ATP z-score 0.0457; inactive.
With knock-down of Naglu [DRSC33899], the record shows mean ATP z-score -0.775; inactive.
Sod3 [DRSC07324] scored mean ATP z-score -0.189; inactive.
Against Sod3 [DRSC26222], the values are mean ATP z-score -1.1; inactive.
CG31926 [DRSC00295] scored mean ATP z-score 0.0798; inactive.
Knock-down of CG31926 [DRSC29022] came out at: mean ATP z-score 0.155; inactive.
Knock-down of Vps36 [DRSC09785] came out at: mean ATP z-score 0.142; inactive.
Vps36 [DRSC37364] gave mean ATP z-score -0.526; inactive.
Hacl [DRSC06061] showed mean ATP z-score -1.19; inactive.
Knock-down of Hacl [DRSC37107] gave: mean ATP z-score -0.204; inactive.
Depletion of Mcad [DRSC09871] resulted in: mean ATP z-score -0.502; inactive.
Against Mcad [DRSC25980] the deposit lists mean ATP z-score -0.733; inactive.
After knock-down of ClC-a [DRSC14947], the record shows mean ATP z-score 0.275; inactive.
After knock-down of ClC-a [DRSC14948], the record shows mean ATP z-score 0.866; inactive.
After knock-down of ClC-a [DRSC16142], the record shows mean ATP z-score -0.314; inactive.
Silencing of Daao2 [DRSC02135] came out at: mean ATP z-score -0.00738; inactive.

Part of the list above in another layout.
| target | DRSC id | mean ATP z-score | outcome |
| --- | --- | --- | --- |
| Sod3 | DRSC26222 | -1.1 | inactive |
| CG31926 | DRSC00295 | 0.0798 | inactive |
| CG31926 | DRSC29022 | 0.155 | inactive |
| Vps36 | DRSC09785 | 0.142 | inactive |
| Vps36 | DRSC37364 | -0.526 | inactive |
| Hacl | DRSC06061 | -1.19 | inactive |

Further entries follow.
For mv [DRSC08208] the deposit lists mean ATP z-score -0.482; inactive.
mv [DRSC28733] gave mean ATP z-score 0.0463; inactive.
With knock-down of mv [DRSC33279], the record shows mean ATP z-score -0.534; inactive.
Xpac [DRSC18730] gave mean ATP z-score 0.407; inactive.
With knock-down of Xpac [DRSC25963] the results were mean ATP z-score 0.576; inactive.
Depletion of Xpac [DRSC41029] gave: mean ATP z-score -0.659; inactive.
For CG33128 [DRSC00294], the entry reads mean ATP z-score -0.775; inactive.
With knock-down of CG33128 [DRSC28698], the screen gave mean ATP z-score -1.04; inactive.
Depletion of CROT [DRSC27733] resulted in: mean ATP z-score 1.72; active.
With knock-down of CROT [DRSC32670], the record shows mean ATP z-score -0.367; inactive.
Against CROT [DRSC32671], the entry reads mean ATP z-score -1.18; inactive.
Silencing of Mpcp2 [DRSC11226] came out at: mean ATP z-score 0.0492; inactive.
Mpcp2 [DRSC41005] scored mean ATP z-score -0.255; inactive.
With knock-down of Chc [DRSC20229], the screen gave mean ATP z-score -0.655; inactive.
After knock-down of Chc [DRSC34418], the screen gave mean ATP z-score 1.59; active.
With knock-down of Chc [DRSC34419], the record shows mean ATP z-score -0.885; inactive.
CG12672 [DRSC24282] scored mean ATP z-score 0.374; inactive.
With knock-down of ACC [DRSC07249], the screen gave mean ATP z-score 1.6; active.
After knock-down of ACC [DRSC30763], the screen gave mean ATP z-score -0.608; inactive.
After knock-down of ACC [DRSC30764], the record shows mean ATP z-score -0.633; inactive.
CtsL1 [DRSC05462] showed mean ATP z-score 0.364; inactive.
For CtsL1 [DRSC07363], the values are mean ATP z-score -0.292; inactive.
CtsL1 [DRSC29071] showed mean ATP z-score -1.2; inactive.
Silencing of Arc42 [DRSC14340] resulted in: mean ATP z-score -0.844; inactive.
With knock-down of Arc42 [DRSC31950], the record shows mean ATP z-score -0.375; inactive.
Depletion of Arc42 [DRSC31951] gave: mean ATP z-score 0.307; inactive.
Depletion of Npc2h [DRSC14297] gave: mean ATP z-score -0.596; inactive.
Silencing of CG12355 [DRSC09381] came out at: mean ATP z-score 0.566; inactive.
Depletion of CG12355 [DRSC09883] gave: mean ATP z-score -0.328; inactive.
CG7402 [DRSC10839] scored mean ATP z-score -0.215; inactive.
With knock-down of VhaSFD [DRSC03471] the results were mean ATP z-score -0.106; inactive.
With knock-down of VhaSFD [DRSC32234] the results were mean ATP z-score -1.33; inactive.
For VhaSFD [DRSC32235], the entry reads mean ATP z-score -0.821; inactive.
Depletion of Mfe2 [DRSC19869] resulted in: mean ATP z-score 1.36; inactive.
After knock-down of rb [DRSC18826] the results were mean ATP z-score 0.852; inactive.
After knock-down of rb [DRSC27940] the results were mean ATP z-score -0.0167; inactive.
